Experimental data from patent publication US20240207250A1, “AGENT FOR PROMOTING LIPID REDUCTION” (MITSUBISHI GAS CHEMICAL COMPANY, INC., priority 2021, published 2024).
Some entries share one result that the patent states for a list of compounds.

System: daphnids (Daphnia magna)
Assay: Body fat percentage of daphnids (body fat/body length)
Format: in vivo
Conditions: Nile red fluorescence related to body length; Comparative Example 1 = 100

`N=C(N)NCCCc1nc2c(=O)c3cc(C(=O)O)[nH]c3c3c(C(=O)[O-])cc(C(=O)[O-])n1c23.[Na+].[Na+]` [Example 2, Arginine Residue IPQ Disodium] was tested, and the “body fat percentage (fat reduction effect), FIG. 1” value was “strong fat reduction effect”.
